Measured values taken from publication PMC11061230.
No constants are given. Whether binding was seen depends on the method and setting. Binding seen in cells or lysates may run through a third protein. Some binding calls cover weakened binding; strength is not graded here.

The chains behind the UniProt entries cited, without tags or fusion partners.
UniProt Q9UIH9: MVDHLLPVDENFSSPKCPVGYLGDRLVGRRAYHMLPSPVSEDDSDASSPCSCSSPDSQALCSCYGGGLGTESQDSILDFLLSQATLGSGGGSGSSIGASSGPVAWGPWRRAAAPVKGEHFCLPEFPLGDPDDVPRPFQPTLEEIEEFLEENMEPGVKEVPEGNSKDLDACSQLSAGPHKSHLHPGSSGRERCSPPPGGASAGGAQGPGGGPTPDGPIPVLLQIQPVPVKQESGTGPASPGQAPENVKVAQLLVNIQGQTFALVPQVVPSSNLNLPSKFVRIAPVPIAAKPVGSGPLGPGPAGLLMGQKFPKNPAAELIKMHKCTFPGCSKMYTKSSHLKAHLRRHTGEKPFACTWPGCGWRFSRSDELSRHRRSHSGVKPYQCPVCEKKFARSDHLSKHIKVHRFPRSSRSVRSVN

Target: T1, myocardin-related transcription factor B (MRTFB), endogenous in HASMCs (human (endogenous in HASMCs)) (UniProt Q9ULH7)
T1 sequence: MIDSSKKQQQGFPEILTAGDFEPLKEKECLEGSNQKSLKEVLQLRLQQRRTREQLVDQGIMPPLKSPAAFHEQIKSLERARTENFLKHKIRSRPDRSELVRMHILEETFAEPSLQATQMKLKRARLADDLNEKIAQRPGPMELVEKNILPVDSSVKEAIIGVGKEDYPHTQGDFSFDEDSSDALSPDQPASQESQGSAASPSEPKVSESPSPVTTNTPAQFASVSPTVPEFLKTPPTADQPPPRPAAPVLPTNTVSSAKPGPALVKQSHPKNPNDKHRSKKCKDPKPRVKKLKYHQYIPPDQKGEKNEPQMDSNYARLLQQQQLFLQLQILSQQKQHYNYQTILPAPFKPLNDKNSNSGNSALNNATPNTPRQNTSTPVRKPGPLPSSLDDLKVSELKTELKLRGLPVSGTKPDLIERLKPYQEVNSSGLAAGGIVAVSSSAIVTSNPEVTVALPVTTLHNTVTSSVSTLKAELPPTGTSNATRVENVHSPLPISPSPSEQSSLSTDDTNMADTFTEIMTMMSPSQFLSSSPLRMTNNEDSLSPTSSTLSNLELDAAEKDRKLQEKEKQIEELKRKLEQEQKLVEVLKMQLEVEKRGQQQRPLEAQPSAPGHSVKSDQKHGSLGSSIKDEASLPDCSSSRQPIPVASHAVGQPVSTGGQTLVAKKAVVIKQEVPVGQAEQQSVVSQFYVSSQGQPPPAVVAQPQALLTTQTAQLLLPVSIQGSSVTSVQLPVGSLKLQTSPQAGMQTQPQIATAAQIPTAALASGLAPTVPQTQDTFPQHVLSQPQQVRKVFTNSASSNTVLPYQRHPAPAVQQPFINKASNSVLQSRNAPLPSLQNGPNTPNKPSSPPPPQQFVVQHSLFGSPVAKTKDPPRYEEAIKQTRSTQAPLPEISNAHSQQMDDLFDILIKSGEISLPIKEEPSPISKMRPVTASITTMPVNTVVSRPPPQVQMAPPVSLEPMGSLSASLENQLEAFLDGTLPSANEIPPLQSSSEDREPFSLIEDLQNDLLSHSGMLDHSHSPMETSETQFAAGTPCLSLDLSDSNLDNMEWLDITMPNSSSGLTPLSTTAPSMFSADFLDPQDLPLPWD
Test: co-IP; HASMC lysate incubated with anti-MRTFB antibody or control IgG, then Protein A/G PLUS-beads, three washes; immunoblot with anti-KLF15 and anti-MRTFB antibodies

- binding: binds
Substance: Krüppel-like factor 15 (KLF15), endogenous in HASMCs (from UniProt Q9UIH9 1-416)
